The list shows a part of the results.
Assays:
Experiment in all cases: log2 fold change, soluble protein after heating vs DMSO (PISA); higher = thermal stabilisation; K562 lysate, 10 uM; active = over 0.2 and 3.5 SD of the protein, either way, in both replicates (recomputed)
erlotinib = compound: C#Cc1cccc(Nc2ncnc3cc(OCCOC)c(OCCOC)cc23)c1 [erlotinib]
How it was run: (§1)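 Soluble protein was defined as the supernatant remaining after 21,000xg for 90 min, following pooling of heated aliquots and adjustment to 0.5% NP-40 at 4°C. Before that, crude K562 extract at 1 mg/mL protein in PBS pH 7.4 with 1 mM MgCl2 was treated with 10 μM compound for 30 min and heated for 3 min across 48°C-58°C. Quantification used TMTpro 16plex LC-MS/MS with channel sums equalised, and values are log-two fold changes in thermal stability relative to solvent controls from duplicates.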

Amino acid sequences for entries named in this document (tags omitted). A change or cut given only in a name is not applied to a line headed by its entry.
UniProt P33947: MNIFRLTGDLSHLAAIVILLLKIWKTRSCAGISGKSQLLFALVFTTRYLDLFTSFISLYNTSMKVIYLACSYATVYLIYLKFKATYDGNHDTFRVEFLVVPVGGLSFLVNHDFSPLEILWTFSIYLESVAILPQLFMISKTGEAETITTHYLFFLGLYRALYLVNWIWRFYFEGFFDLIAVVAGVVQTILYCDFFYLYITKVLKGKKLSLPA
UniProt Q15652: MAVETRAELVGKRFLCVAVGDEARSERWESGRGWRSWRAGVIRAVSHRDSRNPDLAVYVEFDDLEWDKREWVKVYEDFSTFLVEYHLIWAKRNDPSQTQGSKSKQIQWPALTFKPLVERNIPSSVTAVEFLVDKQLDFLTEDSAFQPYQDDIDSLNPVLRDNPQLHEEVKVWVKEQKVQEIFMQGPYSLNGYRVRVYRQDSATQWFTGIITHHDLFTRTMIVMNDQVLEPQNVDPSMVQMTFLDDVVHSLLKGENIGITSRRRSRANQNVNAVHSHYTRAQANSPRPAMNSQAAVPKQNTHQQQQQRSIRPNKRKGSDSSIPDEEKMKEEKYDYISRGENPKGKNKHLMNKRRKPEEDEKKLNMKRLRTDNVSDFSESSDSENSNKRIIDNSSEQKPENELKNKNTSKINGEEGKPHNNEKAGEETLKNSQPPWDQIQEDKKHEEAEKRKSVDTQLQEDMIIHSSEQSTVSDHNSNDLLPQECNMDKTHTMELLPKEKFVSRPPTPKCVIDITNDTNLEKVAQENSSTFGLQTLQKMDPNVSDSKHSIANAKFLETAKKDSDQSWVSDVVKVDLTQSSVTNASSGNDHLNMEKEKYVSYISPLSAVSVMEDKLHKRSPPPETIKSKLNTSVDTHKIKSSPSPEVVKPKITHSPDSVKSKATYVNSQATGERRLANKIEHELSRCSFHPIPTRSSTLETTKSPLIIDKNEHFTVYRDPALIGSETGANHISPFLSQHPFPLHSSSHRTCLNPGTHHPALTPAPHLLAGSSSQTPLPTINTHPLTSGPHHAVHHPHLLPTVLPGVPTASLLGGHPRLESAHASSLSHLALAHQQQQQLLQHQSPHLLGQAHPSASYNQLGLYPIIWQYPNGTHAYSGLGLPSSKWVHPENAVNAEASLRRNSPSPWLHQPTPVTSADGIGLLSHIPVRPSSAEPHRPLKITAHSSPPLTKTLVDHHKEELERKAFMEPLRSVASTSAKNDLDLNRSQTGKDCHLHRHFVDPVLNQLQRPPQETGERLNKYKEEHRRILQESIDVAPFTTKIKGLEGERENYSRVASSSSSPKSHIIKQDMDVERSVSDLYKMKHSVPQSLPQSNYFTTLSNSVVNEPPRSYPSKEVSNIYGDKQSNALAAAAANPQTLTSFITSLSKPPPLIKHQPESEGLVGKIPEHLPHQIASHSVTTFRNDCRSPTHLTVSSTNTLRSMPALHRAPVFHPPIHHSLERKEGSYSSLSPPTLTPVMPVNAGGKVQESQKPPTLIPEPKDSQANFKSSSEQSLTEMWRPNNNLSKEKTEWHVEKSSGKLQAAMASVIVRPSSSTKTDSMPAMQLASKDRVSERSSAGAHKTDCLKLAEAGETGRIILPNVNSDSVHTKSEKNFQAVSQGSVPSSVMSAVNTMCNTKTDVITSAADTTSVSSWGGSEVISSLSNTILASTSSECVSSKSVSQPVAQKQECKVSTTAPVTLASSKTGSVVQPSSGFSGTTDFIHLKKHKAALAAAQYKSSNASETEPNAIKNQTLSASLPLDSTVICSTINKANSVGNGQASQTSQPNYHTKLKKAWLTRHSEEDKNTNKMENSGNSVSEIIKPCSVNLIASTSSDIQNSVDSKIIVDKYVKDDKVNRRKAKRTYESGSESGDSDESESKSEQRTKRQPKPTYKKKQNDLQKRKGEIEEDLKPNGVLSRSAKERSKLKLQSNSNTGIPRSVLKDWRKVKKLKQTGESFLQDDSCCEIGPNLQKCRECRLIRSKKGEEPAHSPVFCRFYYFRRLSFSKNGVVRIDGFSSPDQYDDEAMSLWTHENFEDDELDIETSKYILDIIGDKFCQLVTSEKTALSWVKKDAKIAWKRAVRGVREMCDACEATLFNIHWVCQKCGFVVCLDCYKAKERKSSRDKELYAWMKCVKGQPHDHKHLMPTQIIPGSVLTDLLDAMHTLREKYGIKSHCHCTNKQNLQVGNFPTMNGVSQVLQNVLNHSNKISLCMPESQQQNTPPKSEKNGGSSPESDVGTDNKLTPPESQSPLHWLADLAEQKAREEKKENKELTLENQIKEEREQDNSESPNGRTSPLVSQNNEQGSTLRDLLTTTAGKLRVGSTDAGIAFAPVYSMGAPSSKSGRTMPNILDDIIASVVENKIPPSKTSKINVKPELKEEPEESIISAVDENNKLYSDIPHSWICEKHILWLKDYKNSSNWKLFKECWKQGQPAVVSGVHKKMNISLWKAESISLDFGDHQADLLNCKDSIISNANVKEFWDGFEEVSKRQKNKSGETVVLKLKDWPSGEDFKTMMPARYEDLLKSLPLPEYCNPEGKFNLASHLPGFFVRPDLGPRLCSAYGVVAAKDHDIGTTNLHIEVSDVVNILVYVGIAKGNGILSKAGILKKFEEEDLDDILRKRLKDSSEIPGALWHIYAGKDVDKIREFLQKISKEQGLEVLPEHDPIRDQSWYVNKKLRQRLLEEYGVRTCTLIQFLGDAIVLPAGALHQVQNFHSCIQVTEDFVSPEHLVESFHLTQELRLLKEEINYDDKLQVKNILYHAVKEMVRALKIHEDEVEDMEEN
UniProt Q96AB3: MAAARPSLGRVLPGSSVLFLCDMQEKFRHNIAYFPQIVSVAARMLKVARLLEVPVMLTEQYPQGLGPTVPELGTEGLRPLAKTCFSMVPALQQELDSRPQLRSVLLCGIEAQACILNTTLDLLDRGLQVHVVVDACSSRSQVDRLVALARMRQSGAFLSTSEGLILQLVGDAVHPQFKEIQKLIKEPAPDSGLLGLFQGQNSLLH
UniProt O15397, whole entry, looked up: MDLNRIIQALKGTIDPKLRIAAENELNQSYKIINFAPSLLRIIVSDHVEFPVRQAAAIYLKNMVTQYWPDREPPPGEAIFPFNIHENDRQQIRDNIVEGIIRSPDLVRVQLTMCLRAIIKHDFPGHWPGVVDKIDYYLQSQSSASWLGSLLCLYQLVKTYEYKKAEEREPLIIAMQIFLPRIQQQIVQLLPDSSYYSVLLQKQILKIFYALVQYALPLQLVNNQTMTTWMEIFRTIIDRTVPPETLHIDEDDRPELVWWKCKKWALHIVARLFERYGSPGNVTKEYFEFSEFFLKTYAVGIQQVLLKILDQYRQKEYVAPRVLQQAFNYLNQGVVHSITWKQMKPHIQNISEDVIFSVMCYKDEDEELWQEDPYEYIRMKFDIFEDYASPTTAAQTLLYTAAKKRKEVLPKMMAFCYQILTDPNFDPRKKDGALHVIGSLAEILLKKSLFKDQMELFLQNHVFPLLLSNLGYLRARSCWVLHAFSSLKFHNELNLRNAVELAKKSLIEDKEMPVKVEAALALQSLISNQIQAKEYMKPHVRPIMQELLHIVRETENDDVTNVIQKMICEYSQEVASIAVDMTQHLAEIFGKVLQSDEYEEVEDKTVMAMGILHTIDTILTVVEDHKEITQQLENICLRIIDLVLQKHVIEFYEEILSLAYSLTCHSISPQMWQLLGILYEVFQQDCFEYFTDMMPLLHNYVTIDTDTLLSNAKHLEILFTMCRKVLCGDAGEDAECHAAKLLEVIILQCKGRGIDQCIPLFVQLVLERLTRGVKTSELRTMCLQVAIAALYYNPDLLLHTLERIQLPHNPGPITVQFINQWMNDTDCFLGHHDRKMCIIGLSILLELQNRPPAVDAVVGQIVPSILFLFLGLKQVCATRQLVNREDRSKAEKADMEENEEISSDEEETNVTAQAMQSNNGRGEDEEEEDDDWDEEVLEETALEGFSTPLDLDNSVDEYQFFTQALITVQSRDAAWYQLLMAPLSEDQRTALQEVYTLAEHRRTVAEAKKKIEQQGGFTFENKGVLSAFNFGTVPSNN
UniProt Q15811: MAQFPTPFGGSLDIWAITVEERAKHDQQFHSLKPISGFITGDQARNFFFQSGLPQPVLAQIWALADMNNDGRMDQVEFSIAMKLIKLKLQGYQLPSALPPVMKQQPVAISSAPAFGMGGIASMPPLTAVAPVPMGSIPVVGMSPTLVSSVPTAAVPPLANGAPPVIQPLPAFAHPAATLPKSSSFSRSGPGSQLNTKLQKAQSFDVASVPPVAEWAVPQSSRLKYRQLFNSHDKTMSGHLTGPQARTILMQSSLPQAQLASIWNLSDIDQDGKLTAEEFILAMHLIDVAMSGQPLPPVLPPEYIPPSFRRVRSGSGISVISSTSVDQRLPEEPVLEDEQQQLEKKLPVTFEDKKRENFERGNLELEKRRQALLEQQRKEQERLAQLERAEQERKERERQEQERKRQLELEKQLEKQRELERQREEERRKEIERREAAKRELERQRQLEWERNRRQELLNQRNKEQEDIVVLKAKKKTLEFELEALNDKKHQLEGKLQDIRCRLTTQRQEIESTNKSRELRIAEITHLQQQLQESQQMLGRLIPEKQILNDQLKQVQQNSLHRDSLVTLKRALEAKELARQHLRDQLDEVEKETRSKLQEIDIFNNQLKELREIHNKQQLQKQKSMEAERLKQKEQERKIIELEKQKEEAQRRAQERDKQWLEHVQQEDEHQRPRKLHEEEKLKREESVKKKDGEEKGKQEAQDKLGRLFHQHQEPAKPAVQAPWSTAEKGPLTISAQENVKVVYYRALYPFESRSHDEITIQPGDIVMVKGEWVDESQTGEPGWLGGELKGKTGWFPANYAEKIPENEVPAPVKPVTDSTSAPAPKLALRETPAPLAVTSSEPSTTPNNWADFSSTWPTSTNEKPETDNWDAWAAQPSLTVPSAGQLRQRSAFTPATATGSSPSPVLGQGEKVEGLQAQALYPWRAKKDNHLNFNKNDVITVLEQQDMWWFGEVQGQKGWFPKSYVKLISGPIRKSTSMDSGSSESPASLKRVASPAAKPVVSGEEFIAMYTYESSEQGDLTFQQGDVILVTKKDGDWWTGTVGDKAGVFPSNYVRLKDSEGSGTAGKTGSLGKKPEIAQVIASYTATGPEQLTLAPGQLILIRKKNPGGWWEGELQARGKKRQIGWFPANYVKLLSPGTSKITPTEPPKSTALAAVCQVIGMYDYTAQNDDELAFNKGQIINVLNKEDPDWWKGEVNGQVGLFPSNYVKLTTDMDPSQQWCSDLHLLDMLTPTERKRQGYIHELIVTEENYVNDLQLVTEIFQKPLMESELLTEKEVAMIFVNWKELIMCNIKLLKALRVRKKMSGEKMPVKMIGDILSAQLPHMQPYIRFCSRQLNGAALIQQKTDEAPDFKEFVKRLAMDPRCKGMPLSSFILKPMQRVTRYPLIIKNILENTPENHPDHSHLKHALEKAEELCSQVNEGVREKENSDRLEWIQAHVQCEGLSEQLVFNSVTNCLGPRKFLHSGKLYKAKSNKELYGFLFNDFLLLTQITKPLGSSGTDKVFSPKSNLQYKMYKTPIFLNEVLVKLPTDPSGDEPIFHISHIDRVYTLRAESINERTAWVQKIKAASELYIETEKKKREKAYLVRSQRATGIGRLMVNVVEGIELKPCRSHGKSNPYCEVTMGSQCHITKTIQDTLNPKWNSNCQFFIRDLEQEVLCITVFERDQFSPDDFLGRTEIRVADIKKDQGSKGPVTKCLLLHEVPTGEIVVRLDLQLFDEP
UniProt Q5JSJ4, whole entry, looked up: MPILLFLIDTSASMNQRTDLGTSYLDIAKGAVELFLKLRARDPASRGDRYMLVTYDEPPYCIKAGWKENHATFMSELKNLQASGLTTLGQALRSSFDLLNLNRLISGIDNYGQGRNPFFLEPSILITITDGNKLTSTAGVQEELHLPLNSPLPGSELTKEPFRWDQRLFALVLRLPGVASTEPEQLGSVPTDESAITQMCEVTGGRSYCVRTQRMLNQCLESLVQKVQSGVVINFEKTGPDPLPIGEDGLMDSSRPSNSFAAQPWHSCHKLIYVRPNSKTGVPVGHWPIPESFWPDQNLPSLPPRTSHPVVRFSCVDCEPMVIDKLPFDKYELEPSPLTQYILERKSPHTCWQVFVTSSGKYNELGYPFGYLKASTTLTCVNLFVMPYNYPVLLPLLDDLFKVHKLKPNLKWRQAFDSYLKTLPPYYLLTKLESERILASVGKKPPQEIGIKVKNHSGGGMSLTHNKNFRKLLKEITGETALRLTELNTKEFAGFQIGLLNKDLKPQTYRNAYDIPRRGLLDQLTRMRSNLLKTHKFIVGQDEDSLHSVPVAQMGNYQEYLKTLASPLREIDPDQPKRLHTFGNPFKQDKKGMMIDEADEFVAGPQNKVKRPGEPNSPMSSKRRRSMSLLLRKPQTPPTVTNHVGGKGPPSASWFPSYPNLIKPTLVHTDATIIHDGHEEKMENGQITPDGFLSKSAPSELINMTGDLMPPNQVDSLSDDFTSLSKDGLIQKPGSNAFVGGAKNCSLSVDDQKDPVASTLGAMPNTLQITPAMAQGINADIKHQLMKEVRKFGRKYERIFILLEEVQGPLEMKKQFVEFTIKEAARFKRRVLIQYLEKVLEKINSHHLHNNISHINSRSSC

[1] = compound: C/C(=N\NC(=O)C1=CC(=CC=C1)S(=O)(=O)N2CCOCC2)/C3=C(C=CC(=C3)Cl)O
How it was run: as §1

[2] = compound: C1=CC(=CC=C1C2=NC3=C(N2)C=C(C=C3)C(=O)N)OC4=CC=C(C=C4)Cl
How it was run: as §1

[3] = compound: C1=CC2=C(C=CC(=C2)/C=C\3/C(=O)NC(=NCC4=CC=CS4)S3)N=C1
How it was run: as §1

[4] = compound: C1=CC2=NC=CN=C2C=C1/C=C/3\C(=O)NC(=O)S3
How it was run: as §1

[5] = compound: C1=CC=C(C=C1)C2=NC(=C(N2)C3=CC=NC=C3)C4=CC(=C(C=C4)Cl)O
How it was run: as §1

[6] = compound: C1=CC=C2C(=C1)C3=NNC4=CC=CC(=C43)C2=O
How it was run: as §1

IRAK-1-4 Inhibitor I = compound: C1COCCN1CCN2C3=CC=CC=C3N=C2NC(=O)C4=CC(=CC=C4)[N+](=O)[O-] [IRAK-1-4 Inhibitor I]
How it was run: as §1

[7] = compound: C1CCN(C1)C(=O)NC2=CC=CC(=C2)NC3=NC=C(C(=N3)NCCC4=CN=CN4)Br
How it was run: as §1

[8] = compound: C1CN(CCC1(CC2=CC=C(C=C2)Cl)N)C3=NC=NC4=C3C=CN4
How it was run: as §1

Measured: log2 fold change

ITM2B (UniProt Q9Y287)
inactive: erlotinib -0.039 | [1] 0.225 | [2] 0.02 | [3] -0.202 | [4] 0.026 | [5] 0.005 | [6] 0.052 | IRAK-1-4 Inhibitor I 0.023

KDELR2 (UniProt P33947)
inactive: erlotinib 0.025 | [1] 0.037 | [2] 0.048 | [3] -0.069 | [4] 0.045 | [5] -0.063 | [6] -0.037 | [7] -0.094 | [8] -0.008 | IRAK-1-4 Inhibitor I 0.114

INTS14 (UniProt Q96SY0)
inactive: erlotinib 0.007 | [1] -0.13 | [2] 0.025 | [3] 0.008 | [4] -0.012 | [5] -0.001 | [6] 0.018 | [7] -0.01 | [8] 0 | IRAK-1-4 Inhibitor I 0.006

IVNS1ABP (UniProt Q9Y6Y0)
inactive: erlotinib 0.004 | [1] 0.051 | [2] -0.002 | [3] 0.013 | [4] -0.066 | [5] 0.007 | [6] 0.013 | [7] 0 | [8] 0.005 | IRAK-1-4 Inhibitor I 0.009

JAK2 (UniProt O60674)
inactive: erlotinib -0.054 | [1] -0.043 | [2] -0.058 | [3] 0.117 | [5] -0.069 | [6] 0.105 | IRAK-1-4 Inhibitor I 0.048

ISG20L2 (UniProt Q9H9L3)
inactive: erlotinib -0.002 | [1] -0.099 | [2] -0.03 | [3] -0.075 | [5] 0.104 | [6] 0.033 | [7] 0.015 | [8] -0.063 | IRAK-1-4 Inhibitor I 0.032

ITGA5 (UniProt P08648)
inactive: erlotinib 0.007 | [1] -0.07 | [2] 0.001 | [3] 0 | [4] -0.02 | [5] -0.005 | [6] -0.015 | [7] 0 | [8] 0.008 | IRAK-1-4 Inhibitor I 0.018

ISOC1 (UniProt Q96CN7)
inactive: erlotinib -0.008 | [1] 0.009 | [2] 0.007 | [3] -0.015 | [4] -0.019 | [5] 0.004 | [6] 0.007 | [7] 0.001 | [8] -0.019 | IRAK-1-4 Inhibitor I 0.016

IPP (UniProt Q9Y573)
inactive: erlotinib -0.04 | [1] -0.192 | [2] -0.017 | [3] -0.181 | [5] 0.025 | [6] -0.105 | [7] 0.179 | [8] 0.041 | IRAK-1-4 Inhibitor I -0.035

KCTD3 (UniProt Q9Y597)
inactive: erlotinib -0.006 | [1] 0.005 | [2] 0.031 | [3] 0.011 | [4] -0.019 | [5] -0.002 | [6] -0.056 | [7] -0.034 | [8] 0.023 | IRAK-1-4 Inhibitor I -0.021

JMJD1C (UniProt Q15652)
inactive: erlotinib 0.003 | [1] -0.021 | [2] 0.022 | [3] -0.07 | [4] -0.028 | [5] 0.013 | [6] -0.007 | [7] -0.072 | [8] 0.043 | IRAK-1-4 Inhibitor I 0

IPO9 (UniProt Q96P70)
inactive: erlotinib -0.008 | [1] -0.006 | [2] 0.017 | [3] 0.005 | [4] 0.014 | [5] -0.005 | [6] 0.006 | [7] 0.007 | [8] 0.011 | IRAK-1-4 Inhibitor I 0.017

ISOC2 (UniProt Q96AB3)
inactive: erlotinib -0.018 | [1] 0.003 | [2] 0.001 | [3] -0.035 | [4] -0.006 | [5] -0.072 | [6] 0.003 | [7] -0.007 | [8] -0.001 | IRAK-1-4 Inhibitor I 0.053

KCTD21 (UniProt Q4G0X4)
inactive: erlotinib 0.001 | [1] 0.004 | [2] 0.041 | [3] -0.072 | [4] -0.069 | [5] 0.078 | [6] 0.002 | [7] -0.018 | [8] 0.061 | IRAK-1-4 Inhibitor I -0.157

IST1 isoform 2 (UniProt P53990)
inactive: erlotinib -0.024 | [1] -0.455 | [2] -0.059 | [3] -0.055 | [5] 0.049 | [6] 0.07 | [7] 0.035 | [8] -0.164 | IRAK-1-4 Inhibitor I 0.022

IPO8 (UniProt O15397)
inactive: erlotinib 0.023 | [1] -0.051 | [2] 0.024 | [3] 0.002 | [4] 0.048 | [5] -0.01 | [6] -0.05 | [7] 0 | [8] 0.004 | IRAK-1-4 Inhibitor I -0.006

IQCB1 (UniProt Q15051)
inactive: erlotinib 0.278 | [1] -0.129 | [2] 0.025 | [3] -0.077 | [4] -0.052 | [6] 0.059 | [7] 0.019 | [8] -0.027

KAT5 isoform 3 (UniProt Q92993)
inactive: erlotinib -0.006 | [1] 0.028 | [2] -0.018 | [3] 0.036 | [4] 0.008 | [6] 0.114 | [7] 0.155 | [8] 0.158

KCTD7 (UniProt Q96MP8)
inactive: erlotinib 0.153 | [1] 0.29 | [2] -0.026 | [3] 0.021 | [5] -0.156 | [6] 0.107 | [7] -0.074 | [8] 0.023 | IRAK-1-4 Inhibitor I -0.151

KDELR3 (UniProt O43731)
inactive: erlotinib -0.033 | [1] 0.151 | [2] -0.353 | [3] -0.185 | [5] -0.014 | [6] 0.258 | [7] 0.018 | [8] -0.036 | IRAK-1-4 Inhibitor I -0.061

ITSN1 isoform 8 (UniProt Q15811)
inactive: erlotinib -0.018 | [1] -0.007 | [2] 0.039 | [3] 0.002 | [4] -0.151 | [5] 0.054 | [6] 0.051 | [7] -0.06 | [8] 0.008 | IRAK-1-4 Inhibitor I 0.022

ISCA2 (UniProt Q86U28)
inactive: erlotinib -0.021 | [1] 0.104 | [2] 0.028 | [3] 0.014 | [4] -0.046 | [5] 0.031 | [6] 0.05 | [7] -0.006 | [8] 0.025 | IRAK-1-4 Inhibitor I 0.024

KCNK5 (UniProt O95279)
inactive: erlotinib -0.177 | [1] 0.049 | [2] -0.133 | [3] 0.265 | [4] -0.167 | [6] -0.151

KAT14 (UniProt Q9H8E8)
inactive: erlotinib 0.05 | [1] 0.205 | [2] -0.06 | [3] -0.012 | [4] -0.102 | [6] 0.035 | [7] -0.031 | [8] 0.013

IPO5 (UniProt H0Y3V4)
inactive: erlotinib 0.057 | [1] -0.382 | [2] 0.138 | [3] 0.207 | [5] 0.08 | [6] 0.382 | [7] -0.219 | [8] 0.107 | IRAK-1-4 Inhibitor I -0.017

KCTD2 (UniProt Q14681)
inactive: [1] -0.052 | [3] -0.144 | [4] 0.01 | [6] -0.105 | [7] 0.168 | [8] -0.196

ISG20 (UniProt Q96AZ6)
inactive: erlotinib -0.225 | [2] 0.036 | [4] 0.018

JCHAIN (UniProt P01591)
inactive: erlotinib -0.515 | [2] -0.241

ITFG2 (UniProt H0YGR0)
inactive: [1] 0.074 | [3] -0.126 | [5] 0.079 | [6] 0.117 | IRAK-1-4 Inhibitor I 0.065

NA (UniProt J3KR12)
inactive: [1] -0.208 | [3] -0.109 | [6] -0.11 | [7] -0.458 | [8] 0.03

INTS6L (UniProt Q5JSJ4)
inactive: erlotinib 0.005 | [2] 0.014 | [5] 0.095 | IRAK-1-4 Inhibitor I -0.073
